Measured data: PubChem BioAssay AID1671195 (Yale University, 2021)

Screen: 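Genes whose knockdown alters LDL uptake in liver cancer cells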 (primary screen)
Cells: human Huh7 hepatoma cells
Knock-down reagent: siRNA pool against human genes, 18 nM
Time to read-out: about 2 to 2.5 days of knockdown, then 8 h LDL uptake
Conditions: DiI-labelled LDL at 30 µg/ml for 8 h, in lipoprotein-deficient serum medium
Measured: 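Fluorescent LDL signal imaged in cells, scaled to the plate median, robust z-score for each replicate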
Reading the numbers: robust z-score: higher = more LDL uptake after knockdown
Hit rule: 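a gene counts as active if at least two replicate z-scores exceed ±2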
Here is a random part of about 22,000 deposited reagents. In the full data, about 1,510 (6.9%) were called active. 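Active includes knockdowns raising or lowering LDL uptake; positive z-scores mean more uptake, negative mean less.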 Unmarked entries are inactive.

| robust z-score, replicate 1 | robust z-score, replicate 2 | robust z-score, replicate 3 | target |
| --- | --- | --- | --- |
| -0.585 | -1.45 | 0.636 | MAP1S |
| 0.679 | -0.602 | -0.561 | RAB40A |
| -0.46 | 0.688 | 0.86 | CES2 |
| -0.399 | -0.365 | -0.459 | GPR155 |
| 0.355 | 0.79 | 1.34 | GNA15 |
| 0.263 | 0.196 | -0.208 | LEPROT |
| -0.536 | 0.0916 | 0.317 | DDX39A |
| 0.752 | 0.522 | 0.0177 | LOC388308 (retired record) |
| -0.0447 | -0.453 | 0.33 | IFT81 |
| -0.428 | 1.36 | 0.26 | MARCHF3 |
| 0.367 | -0.435 | -0.21 | PCSK2 |
| -0.39 | -0.992 | -1.65 | KDF1 |
| 0.273 | -0.206 | 0.125 | ST13 |
| -0.0857 | 0.482 | 0.261 | NDUFAF7 |
| -0.584 | -0.637 | -0.282 | CYP2E1 |
| -0.112 | 0.178 | 0.72 | UGT1A10 |
| 0.224 | 0.129 | 0.00508 | LMO2 |
| -0.276 | -0.412 | -0.00521 | GPRASP2 |
| 1.04 | 0.137 | 0.931 | ATP6AP1L |
| -0.993 | -0.855 | -1.13 | RPUSD1 |
| -0.0141 | 0.0664 | 0.0226 | LOC401261 |
| 0.401 | 0.122 | 0.683 | EFCAB8 |
| 0.943 | 0.499 | 1.94 | CCN2 |
| 1.31 | 0.313 | 0.813 | FAM124B |
| 3.25 (active) | 2.76 | 4.66 | PASK |
| 0.587 | -1.02 | -0.457 | KRTAP5-7 |
| -1.01 | -0.962 | -0.957 | LOC440522 (retired record) |
| 3.06 (active) | 2.69 | 2.9 | LOC440274 (retired record) |

2 neighbouring entries already listed:
| robust z-score, replicate 1 | robust z-score, replicate 2 | robust z-score, replicate 3 | target |
| --- | --- | --- | --- |
| -0.428 | 1.36 | 0.26 | MARCHF3 |
| 0.367 | -0.435 | -0.21 | PCSK2 |

Further records follow.
| robust z-score, replicate 1 | robust z-score, replicate 2 | robust z-score, replicate 3 | target |
| --- | --- | --- | --- |
| 2.43 | 1.35 | 1.66 | LETMD1 |
| -0.0584 | -0.351 | -0.305 | ZFYVE16 |
| 1.11 | 2.16 | 1.55 | LOC392749 (retired record) |
| 0.668 | 0.486 | 0.579 | CPS1 |
| 0.286 | 0.213 | 0.617 | LOC284009 |
| -0.0577 | 1.57 | 0.792 | JADE1 |
| 0.141 | -0.39 | 0.67 | MFSD1 |
| 2.32 | 0.0782 | 1.35 | SAP30BP |
| -0.577 | -1.13 | -0.389 | ZNF41 |
| -0.471 | 0.704 | -0.916 | SEC14L2 |
| -1.18 | -1.47 | -1.32 | CACNG6 |
| 1.9 | 0.727 | 1.35 | ACSL1 |
| 1.12 | 0.957 | 0.839 | NPTXR |
| 0.46 | 0.162 | 1.46 | PLEKHB1 |
| -0.0133 | -0.0321 | 0.544 | USP37 |
| -1.65 | -1.97 | -1.75 | CST5 |
| 0.839 | 1.22 | 2.99 | CABYR |
| 0.347 | 0.00843 | -0.0769 | ZNF625 |
